Source: US7335776B2, “Remedies for depression containing EP1 antagonist as the active ingredient” (Ono Pharmaceutical Co., Ltd., priority 2002, dated 2008)
Some results were stated once for a whole list of compounds, not compound by compound. At least one compound was matched to its structure with a doubt left.

Tested on: mouse
Assay: Toxicity (LD50 by oral administration to mouse)
Format: in vivo
Procedure: The toxicity of the compounds of the present invention is very low and therefore, it is confirmed that these compounds are safe for use as medicine. For example, LD50 values of the compound A and B of the present invention by oral administration to mouse are 2000 mg/kg and over.

In the case of Cc1cc(Cl)ccc1S(=O)(=O)NC[C@H]1C2CCC(CC2)[C@H]1/C=C\CCCC(=O)O [Compound A, 6-[(2S, 3S)-3-(4-chloro-2-methylphenylsulfonylaminomethyl)-bicyclo[2.2.2]octan-2-yl]-5Z-hexenoic acid], the LD50 is reported as no less than 2000 mg/kg.
